In PubChem BioAssay AID504847 (National Center for Advancing Translational Sciences (NCATS), 2011):
Several values for one entry are separate records, joined by “and”; a condition that tells them apart may be missing. Equal values may be shown once. About 3,700 (0.93%) of roughly 400,000 compounds were called active. This list was built around the results that the source calls inconclusive (neither active nor inactive); the mix of calls is not that of the screen. Calls follow the shape of the dose curve; as a rule, active = well fitted inhibition curve with a large enough effect; inconclusive = small, poorly fitted or top-dose-only effect, or another doubt; inactive = no such curve, though single readings can be large or run the other way. Where the call is inconclusive, the potency comes from a doubtful curve fit.

Amino acid sequences for entries named in this document (tags omitted). A change or cut given only in a name is not applied to a line headed by its entry.
UniProt P11473: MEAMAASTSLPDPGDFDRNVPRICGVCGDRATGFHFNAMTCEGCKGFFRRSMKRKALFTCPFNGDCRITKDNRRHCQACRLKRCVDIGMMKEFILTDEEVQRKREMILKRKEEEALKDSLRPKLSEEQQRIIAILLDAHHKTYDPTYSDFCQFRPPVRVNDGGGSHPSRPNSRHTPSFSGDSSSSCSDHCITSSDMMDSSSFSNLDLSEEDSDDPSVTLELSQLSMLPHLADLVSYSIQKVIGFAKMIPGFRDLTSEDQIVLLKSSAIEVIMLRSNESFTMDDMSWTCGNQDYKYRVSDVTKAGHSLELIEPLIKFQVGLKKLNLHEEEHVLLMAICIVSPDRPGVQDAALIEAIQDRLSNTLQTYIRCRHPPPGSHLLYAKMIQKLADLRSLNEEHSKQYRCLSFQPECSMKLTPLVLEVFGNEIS

What follows are compounds tested against Vitamin D3 receptor (Homo sapiens) (UniProt P11473) (assay: Inhibitors of the vitamin D receptor (VDR): qHTS). Conditions: VDR-SRC2-3 peptide fluorescence polarization, 2 h; max response, negative = inhibition: stronger effect = lower value.
Method in brief: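 Reagent solutions, kept cold and dark, are dispensed first; compounds are then pinned in at 23 nl, plates briefly spun, and incubated 2 h at ambient temperature. Inhibition of VDR–SRC2-3 peptide binding is read by fluorescence polarization.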
% is scaled to controls: 0 for no effect and ±100 for the full control effect; potency is read from the fitted curve at half-maximal effect.

SMILES	Potency	max response, negative = inhibition
CC(=O)N1CCn2c3c(c(=O)c4cc(C)ccc42)CCC31 (stereo not drawn)	inconclusive: 63.1 µM [inhibitor, partial curve, poor fit]	–
COC(=O)c1c(-c2cccc(C)c2)csc1NC(=O)C1CCCO1 (stereo not drawn)	inconclusive: 79.4 µM [inhibitor, single point]	–
COc1ccc(OC)c(NC(=O)CSc2ccnc(=O)[nH]2)c1	–	inactive: 0.725%
COc1ccccc1-c1cc(C(=O)Nc2sc3c(c2C#N)CCCC3)no1	active: 79.4 µM	–
COc1ccc(-c2nnc(NC(=O)c3ccccc3[N+](=O)[O-])s2)c(OC)c1	–	inactive: 5.94%
COc1ccccc1NC(=S)NCCc1ccccc1	inconclusive: 0.631 µM [inhibitor, full curve, poor fit]	–
O=C(Nc1nccs1)c1ccc[nH]c1=O	inconclusive: 2.51 µM [inhibitor, full curve, poor fit]	–
CCOC(=O)Cn1c2ccc(C)cc2c2nc(C)sc21	inconclusive: 63.1 µM [inhibitor, partial curve, poor fit]	–
CCCN(CCC)C(=O)Cn1c(=O)c2sccc2n2c(=S)sc(-c3ccccc3)c12	inconclusive: 89.1 µM [inhibitor, partial curve, poor fit]	–
O=C(Nc1nc(=O)c2ccccc2s1)c1ccccc1	inconclusive: 56.2 µM [inhibitor, partial curve, poor fit]	–
O=C(/C=C1\C(=O)Nc2ccccc21)/C=C1\C(=O)Nc2ccccc21	active: 56.2 µM	–
CC(=O)Nc1ccc(S(=O)(=O)NC2=NCN(C(C)C)CN2)cc1	–	inactive: -3.56%
Cc1cc(Nc2ccc(N3CCC(C)CC3)cc2)n2ncnc2n1	–	inactive: 10.7%
C=CCOc1ccccc1CN(C(=O)CCl)c1ccc2c(c1)OCO2	inconclusive: 70.8 µM [inhibitor, single point]	–
CCOC(=O)CCCCC(=O)c1[nH]c(=O)[nH]c1CSCCO	–	inactive: 3.16%
CCOC(=O)C1=C(C)NC(C)=C(C(=O)OCC)C1c1ccco1	–	inactive: -15.3%
Oc1ccc(O)c(-c2cnns2)c1	–	inactive: 1.74%
CCCCC1=CC2=C(c3ccco3)C(=O)C(C)(OC(=O)c3ccc(OC)cc3)C(=O)C2=CN1CCCOC(C)C (stereo not drawn)	inconclusive: 79.4 µM [inhibitor, partial curve]	–
CC1CCCCN1C(=O)COC(=O)c1ccc(S(C)(=O)=O)c([N+](=O)[O-])c1 (stereo not drawn)	inconclusive: 39.8 µM [inhibitor, partial curve, poor fit]	–
Oc1c(C(c2ccccn2)N2CCCCC2)cc(Cl)c2cccnc12 (stereo not drawn)	inconclusive: 25.1 µM [inhibitor, partial curve, poor fit]	–
COc1ccc(C2C=C(c3ccccc3)Nc3nc(NS(=O)(=O)c4ccc(C)cc4)nn32)cc1 (stereo not drawn)	–	inactive: 5.72%
CSc1ccc(/C=C2\CCn3c2nc2cc(C(=O)O)ccc2c3=O)cc1	inconclusive: 89.1 µM [inhibitor, single point]	–
Cc1nc2c3cc(F)ccc3n(Cc3ccccc3F)c2s1	active: 50.1 µM	–

Single records, as listed above:
Cc1cc(Nc2ccc(N3CCC(C)CC3)cc2)n2ncnc2n1 as listed: max response, negative = inhibition: inactive: 10.7%
COc1ccc(C2C=C(c3ccccc3)Nc3nc(NS(=O)(=O)c4ccc(C)cc4)nn32)cc1 (stereo not drawn) as listed: max response, negative = inhibition: inactive: 5.72%
COC(=O)c1c(-c2cccc(C)c2)csc1NC(=O)C1CCCO1 (stereo not drawn) as listed: Potency: inconclusive: 79.4 µM [inhibitor, single point]

Later entries

SMILES	Potency	max response, negative = inhibition
CCc1noc(C)c1C(=O)OCC(=O)NC(=O)c1ccccc1OC	inconclusive: 89.1 µM [inhibitor, partial curve, poor fit]	–
COc1ccc(S(=O)(=O)N2CCC(C(=O)NCCN3CCOCC3)CC2)cc1C	inconclusive: 79.4 µM [inhibitor, single point]	–
COc1ccc(CNc2ncnc3ccc(-c4ccoc4)cc23)c(OC)c1	active: 39.8 µM	–
O=S(=O)(NCC(c1ccco1)N1CCOCC1)c1ccc(Cl)cc1 (stereo not drawn)	inconclusive: 50.1 µM [inhibitor, partial curve]	–
CC(OC(=O)C1CSC2(c3ccc(F)cc3)CCC(=O)N12)C(=O)NC(N)=O (stereo not drawn)	–	inactive: 9.74%
CCCN(CCC)C(=O)CC(c1ccccc1)c1ccco1 (stereo not drawn)	–	inactive: -12.1%
COc1ccc2noc3c2c1C(=O)c1ccccc1-3	inconclusive: 100 µM [inhibitor, single point]	–
Cc1cc2oc(C(=O)NCCc3ccc(S(N)(=O)=O)cc3)cc(=O)c2cc1C	inconclusive: 39.8 µM [inhibitor, partial curve, poor fit]	–
Fc1ccc(SCCc2ccncc2)cc1	inconclusive: 50.1 µM [inhibitor, partial curve, poor fit]	–
CC(=O)Nc1ccc(Nc2nc(-c3sc(NC(C)=O)nc3C)cs2)cc1	active: 31.6 µM	–
COc1ccc(N=c2ssnc2Cl)cc1	inconclusive: 8.91 µM [inhibitor, single point]	–
COC(=O)c1cccc(-n2sc3ccccc3c2=O)c1	inconclusive: 22.4 µM [inhibitor, full curve, poor fit]	–
CCC(c1nnc(SCC(=O)Nc2ccc(S(N)(=O)=O)cc2)n1Cc1ccccc1)N(C)C (stereo not drawn)	inconclusive: 7.94 µM [inhibitor, partial curve, poor fit]	–
Cc1oc2ccc(O)c(CN3CCN(C)CC3)c2c1C(=O)Nc1ccc(C(C)C)cc1	–	inactive: 15.9%
O=C(CCC(=O)c1ccc(F)cc1)OCc1nnc(-c2ccc([N+](=O)[O-])cc2)o1	inconclusive: 79.4 µM [inhibitor, partial curve]	–
COc1cccc(OC)c1C(=O)Nc1cc(Cl)ccc1N1CCOCC1	–	inactive: 18%
CN1C(=O)N(C)c2ccc(Br)c3cccc1c23	inconclusive: 89.1 µM [inhibitor, single point]	–
O=C(CCC(=O)OCc1ccc(Br)cc1)Nc1ccccc1	inconclusive: 79.4 µM [inhibitor, single point]	–
O=C1CN(C(=O)c2ccc(S(=O)(=O)N3CCCCC3)cc2)C(c2ccc(F)cc2)c2cc(Cl)ccc2N1 (stereo not drawn)	–	inactive: -17.9%
Cc1ccc(S(=O)(=O)N2CCN(C(=O)CN3CCCSc4ccccc43)CC2)cc1	inconclusive: 89.1 µM [inhibitor, single point]	–
CC(C)(C)NC(=O)NC(=O)CSc1ncc(C(F)(F)F)cc1Cl	inconclusive: 22.4 µM [inhibitor, partial curve, poor fit]	–
Cc1ccc(C2(SCC(N)C(=O)O)c3ccccc3-c3ccccc32)cc1 (stereo not drawn)	–	inactive: -12.8%
CC(C)C[C@@H]1CN=C(N)N1C[C@@H]1CCCN1C[C@@H](C(C)C)N1C[C@@H](Cc2ccccc2)N(CCCC2CCCC2)C1=N	–	inactive: 26%

SMILES	Potency	max response, negative = inhibition
CC(C)c1ccc(CN(C(=O)/C=C/c2ccco2)C2CCS(=O)(=O)C2)cc1 (stereo not drawn)	inconclusive: 79.4 µM [inhibitor, single point]	–
NS(=O)(=O)c1ccc(CNC(=O)c2cnccn2)cc1	inconclusive: 31.6 µM [inhibitor, single point]	–
N#C/C(=C\c1ccc(OCc2ccc(F)cc2)cc1)C(=O)Nc1cccc(C(=O)O)c1	inconclusive: 56.2 µM [inhibitor, partial curve, poor fit]	–
COc1cccc(NC(=O)CS(=O)(=O)Cc2nc(-c3ccc(C)cc3)oc2C)c1	–	inactive: 0.338%
Oc1ccc2ccccc2c1CNc1ccc(Br)cc1	inconclusive: 89.1 µM [inhibitor, partial curve, poor fit]	–
CC(=O)c1ccc(NC(=O)c2cc(S(=O)(=O)N3CCOCC3)ccc2C)cc1	–	inactive: -9.3% and inactive: 3.05%
COc1cc(/C=C/C(=O)OCC(=O)Nc2ccc(C)c(S(=O)(=O)N3CCCCC3)c2)ccc1O	inconclusive: 50.1 µM [inhibitor, partial curve, poor fit]	–
C=CC(=O)N1C/C(=C/c2ccc(Cl)cc2)C(=O)/C(=C\c2ccc(Cl)cc2)C1	inconclusive: 22.4 µM [inhibitor, partial curve, poor fit]	–
Cc1ccc(S(=O)(=O)N2CCCC2c2nc3ccccc3s2)cc1 (stereo not drawn)	inconclusive: 79.4 µM [inhibitor, partial curve, poor fit]	–
CC(=O)Nc1ccc(-n2c(=O)c3ccccc3c3ccccc3c2=O)cc1	inconclusive: 79.4 µM [inhibitor, partial curve]	–
FC(F)(F)c1ccc(Cl)c(-n2c(-c3cc(-c4ccco4)[nH]n3)n[nH]c2=S)c1	inconclusive: 89.1 µM [inhibitor, partial curve, poor fit]	–
O=C(NCCc1ccc(Cl)cc1)c1nnc(Cc2ccc(Cl)cc2)o1	inconclusive: 100 µM [inhibitor, partial curve, poor fit]	–
CC1CCN(c2csc3ccc(F)cc3c2=O)CC1	–	inactive: 14.2%
CNc1ccn(C2CCCO2)c(=O)n1 (stereo not drawn)	–	inactive: -3.47%
COc1cccc(-c2nn(C)c3sc(C(=O)NCc4ccc(C)o4)cc23)c1	inconclusive: 79.4 µM [inhibitor, single point]	–
NNc1cc([N+](=O)[O-])cc2c1C(=O)N(Cc1ccccc1)S2=O (stereo not drawn)	inconclusive: 56.2 µM [inhibitor, partial curve, poor fit]	–
O=S(=O)(NCC(c1ccco1)N1CCOCC1)c1ccc(F)cc1 (stereo not drawn)	inconclusive: 0.708 µM [inhibitor, full curve, poor fit]	–
COc1ccc(-c2ccc(-c3nc4ccc(C)cn4c3NC3CCCCC3)cc2OC)cc1	–	inactive: -4.82%
O=S1(=O)NC(=NCc2ccco2)c2ccccc21	–	inactive: 2.87%
CC1(C)CC(N=C2C([N+](=O)[O-])=CC=C3C2=NC2(CCCCC2)N3O)CC(C)(C)N1	–	inactive: -2.48%
Cc1ccc(C(=O)NCCC(C)C)cc1NC(=O)c1nsc2ccccc12	–	inactive: 11.4%
